PubChem BioAssay AID602196 | INSERM, 2012

- Aim: 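Genes whose knock-down alters cisplatin killing of lung cancer cells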
- System: human A549 lung cancer cells
- Knock-down reagent: siRNA pair against human genes
- Time to read-out: 48 h transfection before cisplatin; time from cisplatin to read-out not stated
- Challenge: cisplatin at a dose killing half of control-siRNA cells; exact dose and duration not given
- Detection: 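Shift in cisplatin death relative to control siRNA, from -50 (all cells die) to +50 (no cells die); siRNAs harmful on their own scored 0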
- Scale: two-siRNA summed score (-2 to +2): higher = both siRNAs protect from cisplatin killing; -2 means both sensitise; mean protection from cisplatin (shift in death) and protection from cisplatin (shift in death), siRNA C: higher = protection from cisplatin killing
- Active means: 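siRNAs harmful alone (LDH or WST-1) get 0; others get +1 for less and -1 for more cisplatin killing; genes are active when the two siRNAs give the same sign, summing to ±2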
- Meaning of the calls: active = both siRNAs shift cisplatin killing the same way; inactive = no consistent shift, or siRNA harmful alone
The deposit covers about 23,000 reagents; shown is a random part of them. In the full data, 455 (2%) are marked active. 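Active includes both protection and sensitisation; some change values fall well beyond the stated -50 to +50 range.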 The numbers tell different reagents against one gene apart. Further read-outs or replicates are left out here. Not stated in the record: the amount of reagent.

no.	target gene	reagent no.	two-siRNA summed score (-2 to +2)	mean protection from cisplatin (shift in death) (%)	protection from cisplatin (shift in death), siRNA C (%)	activity call
1	ADAD2 (GeneID 161931)	1	0	2.8	-0.4	inactive
2	PLB1 (GeneID 151056)	1	0	11.1	13	inactive
3	WARS1P1 (GeneID 341112)	1	0	6.7	13.2	inactive
4	MGRN1 (GeneID 23295)	1	0	10.2	4	inactive
5	ILDR1 (GeneID 286676)	1	0	2.9	-0.1	inactive
6	LOC442591	1	0	21.6	25.6	inactive
7	SH3BGR (GeneID 6450)	1	0	9.6	12.9	inactive
8	LOC388467	1	0	13.4	13	inactive
9	MRPL2 (GeneID 51069)	1	0	3	3.1	inactive
10	OR2L8 (GeneID 391190)	1	1	13	17.1	inactive
11	ZNF30 (GeneID 90075)	1	0	0	-2.1	inactive
12	TSPO2 (GeneID 222642)	1	0	-3.5	-19.7	inactive
13	CPNE4 (GeneID 131034)	1	0	13.3	37.4	inactive
14	GOLGA2P5 (GeneID 55592)	1	0	2.6	4.3	inactive
15	GDPD4 (GeneID 220032)	1	1	8.8	5.7	inactive
16	LINC00668 (GeneID 400643)	1	0	-7.4	-24.5	inactive
17	LOC151154	1	0	23.8	22.8	inactive
18	PALM2AKAP2 (GeneID 445815)	1	0	-4.3	-2.8	inactive
19	PALM2AKAP2 (GeneID 445815)	2	0	-3.4	-5.8	inactive
20	PALM2AKAP2 (GeneID 445815)	3	0	0.7	-7	inactive
21	NTPCR (GeneID 84284)	1	0	6.5	9.9	inactive
22	RFXAP (GeneID 5994)	1	1	12.4	6.9	inactive
23	LOC389702	1	0	1.5	-4.4	inactive

Laid out differently: entries from further up
PALM2AKAP2 (GeneID 445815) #1
- two-siRNA summed score (-2 to +2): 0
- mean protection from cisplatin (shift in death) (%): -4.3
- protection from cisplatin (shift in death), siRNA C (%): -2.8
- activity call: inactive

PALM2AKAP2 (GeneID 445815) #2
- two-siRNA summed score (-2 to +2): 0
- mean protection from cisplatin (shift in death) (%): -3.4
- protection from cisplatin (shift in death), siRNA C (%): -5.8
- activity call: inactive

PALM2AKAP2 (GeneID 445815) #3
- two-siRNA summed score (-2 to +2): 0
- mean protection from cisplatin (shift in death) (%): 0.7
- protection from cisplatin (shift in death), siRNA C (%): -7
- activity call: inactive

NTPCR (GeneID 84284)
- two-siRNA summed score (-2 to +2): 0
- mean protection from cisplatin (shift in death) (%): 6.5
- protection from cisplatin (shift in death), siRNA C (%): 9.9
- activity call: inactive
